# Laboratory results taken from PubChem BioAssay AID504327 (National Center for Advancing Translational Sciences (NCATS), 2011).
# The chains behind the UniProt entries cited, without tags or fusion partners.
# UniProt Q92830, whole entry, looked up: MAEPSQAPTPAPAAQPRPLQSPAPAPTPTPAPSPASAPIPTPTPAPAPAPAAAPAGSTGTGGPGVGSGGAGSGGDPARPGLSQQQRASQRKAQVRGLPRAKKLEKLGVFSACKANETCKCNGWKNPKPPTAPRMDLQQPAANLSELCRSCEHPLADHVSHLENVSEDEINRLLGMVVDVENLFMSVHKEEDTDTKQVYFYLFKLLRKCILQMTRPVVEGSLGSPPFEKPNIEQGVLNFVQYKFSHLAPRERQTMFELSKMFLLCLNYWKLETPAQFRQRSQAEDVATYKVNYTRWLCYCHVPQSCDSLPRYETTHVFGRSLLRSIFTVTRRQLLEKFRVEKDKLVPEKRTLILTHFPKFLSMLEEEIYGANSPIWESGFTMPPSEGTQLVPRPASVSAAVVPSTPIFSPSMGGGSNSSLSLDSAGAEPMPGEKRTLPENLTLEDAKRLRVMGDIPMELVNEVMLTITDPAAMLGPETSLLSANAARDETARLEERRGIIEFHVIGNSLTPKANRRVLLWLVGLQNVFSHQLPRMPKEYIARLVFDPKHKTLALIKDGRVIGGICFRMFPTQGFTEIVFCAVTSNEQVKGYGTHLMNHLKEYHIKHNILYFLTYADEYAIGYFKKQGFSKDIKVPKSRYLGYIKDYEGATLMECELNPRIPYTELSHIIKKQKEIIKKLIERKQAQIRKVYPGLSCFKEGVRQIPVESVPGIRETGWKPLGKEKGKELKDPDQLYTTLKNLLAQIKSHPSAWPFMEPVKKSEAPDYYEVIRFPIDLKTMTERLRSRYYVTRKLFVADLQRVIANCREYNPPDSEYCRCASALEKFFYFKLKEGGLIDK
# Where “and” joins values, the source holds several entries; their conditions need not be identical. Identical values can stand only once. In all, about 390,000 compounds went through this assay and about 820 (0.21%) were called active. The shares of active, inactive and inconclusive entries below differ from those in the screen. Calls follow the shape of the dose curve; as a rule, active = well fitted inhibition curve with a large enough effect; inconclusive = small, poorly fitted or top-dose-only effect, or another doubt; inactive = no such curve, though single readings can be large or run the other way. Potencies of inconclusive entries are doubtful fits and often do not repeat.
# Molecular target: Histone acetyltransferase KAT2A (Homo sapiens) (UniProt Q92830)
# Assay: qHTS Assay for Inhibitors of GCN5L2
# Details: GCN5L2 HAT assay, ThioGlo1 CoA-SH fluorescence; activity change, negative = inhibition: at 58.9 µM (top of the series) unless noted
# Summary of the method: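 GCN5L2 (20nM final) in 50mM HEPES, 0.1mM EDTA pH 7.5, 0.01% Tween-20 was preincubated 15 min at room temperature with compound, then given ThioGlo1 (50uM), H3(1-25) peptide (75uM) and acetyl-CoA (70uM); CoA-thiol fluorescence (Ex340/Em540) was read at 0 and 20 min.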
# % is scaled to controls: 0 for no effect and ±100 for the full control effect; potency is read from the fitted curve at half-maximal effect.
Compound,Potency,"activity change, negative = inhibition"
N#Cc1c(-c2cccnc2)c2c([nH]c1=O)-c1ccccc1OC2,"inconclusive: 35.5 µM [inhibitor, single point]",–
S=c1nc(-c2ccccc2Cl)[nH][nH]1,"inconclusive: 31.6 µM [inhibitor, single point]",–
Cc1ccccc1N1CN(Cc2ccco2)CNC1=S,inactive,–
O=C(CCc1nnc2ccc(NCc3ccco3)nn12)N1CCN(c2ccccc2)CC1,"inconclusive: 39.8 µM [inhibitor, partial curve, poor fit]",–
COc1ccccc1C(=O)Nc1ccc(N2CCN(S(C)(=O)=O)CC2)cc1,"inconclusive: 8.91 µM [inhibitor, single point]",–
Clc1ccc2c(N3CCCC3)ccnc2c1,inactive,–
O=C(O)c1cc(-c2ccco2)nn1-c1ccc(Cl)cc1,active: 20 µM,–
COc1cccc(-n2cnnc2SC(C)C(=O)NC2CCCC2)c1 (stereo not given),"inconclusive: 17.8 µM [inhibitor, partial curve]",–
Cc1cc(NC(=O)CSc2ccc3ccccc3c2)no1,"inconclusive: 17.8 µM [inhibitor, partial curve]",–
O=C(N/N=C/c1ccccn1)c1cccs1,"inconclusive: 35.5 µM [inhibitor, single point]",–
O=C(NCc1ccco1)C12CN(Cc3ccccc3)CC1C(c1cccc([N+](=O)[O-])c1)=NO2 (stereo not given),"inconclusive: 3.98 µM [inhibitor, single point]",–
N#C/C(=C\c1cn(Cc2ccc(F)cc2)c2ccccc12)C(=O)NCc1ccco1,"inconclusive: 39.8 µM [inhibitor, single point]",–
CCN1CCN(S(=O)(=O)c2ccc(Cl)c(C(=O)Nc3ccccc3N3CCCC3)c2)CC1,"inconclusive: 3.16 µM [inhibitor, single point]",–
Cc1ccc(-c2nc3ccccc3c(=O)n2NC(=O)c2cccs2)cc1,"inconclusive: 39.8 µM [inhibitor, single point]",–
CCOC(=O)N(C)OC(=O)Nc1ccc(Cl)c(Cl)c1,inactive,–
CSc1ccccc1OCc1cc(C(=O)N2CCN(c3ncccn3)CC2)no1,"inconclusive: 7.08 µM [inhibitor, partial curve]",–
O=C(CN1C(=O)S/C(=C\C=C\c2ccccc2)C1=O)Nc1ccc(C(=O)O)cc1,"inconclusive: 39.8 µM [inhibitor, partial curve, poor fit]",–
Cc1ccc(Cn2ccc(NC(=O)c3nn(C)cc3Cl)n2)cc1,"inconclusive: 0.398 µM [inhibitor, partial curve, poor fit]",–
O=C(O)c1c[nH]c(=S)n1-c1ccc(F)cc1,"inconclusive: 0.794 µM [inhibitor, single point]",–
CCCCNc1c(-c2ccc(SC3CCCCC3)cc2)nc2ccccn12,"inconclusive: 28.2 µM [inhibitor, partial curve]",–
COC(=O)CC1C(C)(C)C(OC(C)=O)C2CC3=C4CC(=O)OC(c5ccoc5)[C@]4(C)CCC3[C@@]1(C)C2=O (stereo not given in full),inactive,–
O=C(NC1CC1)c1cc2cc3ccccc3nc2s1,inactive,–
CC(=O)NNC(=O)c1sc(=S)n(C)c1C,inactive,–
COc1ccc(C(=O)N(CCc2ccccc2)Cc2ccccc2)c(OC)n1,"inconclusive: 0.708 µM [inhibitor, single point]",–

Compound,Potency,"activity change, negative = inhibition"
NC(=S)N=Nc1c(O)n(C2OC(=O)c3ccccc32)c2ccccc12 (stereo not given),"inconclusive: 25.1 µM [inhibitor, partial curve, poor fit]",–
CC(=O)c1ccc(Oc2cnccn2)cc1,"inconclusive: 0.794 µM [inhibitor, single point]",–
OC(CCN1CCCCC1)(c1ccccc1)C1C[C@@H]2C=C[C@H]1C2 (stereo not given in full),inactive,–
c1cncc(-c2cc(-n3ccnc3)ncn2)c1,"inconclusive: 25.1 µM [inhibitor, partial curve, poor fit]",–
O=C(CCCc1ccccc1)NCCS(=O)(=O)N1CCN(c2ccc(F)cc2)CC1,"inconclusive: 1.78 µM [inhibitor, full curve, poor fit]",–
CCOC(=O)C(C)Oc1ccsc1C(=O)OC (stereo not given),"inconclusive: 7.08 µM [inhibitor, single point]",–
O=C(Cc1cccs1)Nc1nnc(SCc2cccc3ccccc23)s1,"inconclusive: 31.6 µM [inhibitor, partial curve]",–
CC(C)c1ccc(NC(=O)C2CCN(c3ncnc4c3nc3n4CCCCC3)CC2)cc1,inactive,–
COC(=O)c1cc2cc(Cl)ccc2nc1SC,inactive,–
O=C(c1ccoc1)N1CCCC(N2CCN(c3ccc(F)cc3)CC2)C1 (stereo not given),"inconclusive: 0.112 µM [inhibitor, full curve, poor fit]",–
CCOC(=O)c1sc(NC(=O)c2ccccc2)cc1C,–,inactive: 6.94% [at 0.501 µM]
CCOC(=O)c1csc(NC(=O)C2=COCCO2)n1,"inconclusive: 0.501 µM [inhibitor, full curve, poor fit]",–
CC(C)CN1CCC(=O)N([C@H](COc2ccccc2)Cc2ccccc2)CC1,inactive,–
CCC1(c2ccccc2)NC(=O)N(CC(=O)N(C)CC(=O)Nc2cccc(F)c2)C1=O (stereo not given),"inconclusive: 0.891 µM [inhibitor, full curve, poor fit]",–
O=C(O)c1cc(O)c2c(c1)[C@H]([C@H]1c3cc(C(=O)O)cc(O)c3C(=O)c3c(O[C@@H]4OC(CO)C(O)C(O)C4O)cccc31)c1cccc(O[C@@H]3OC(CO)C(O)C(O)C3O)c1C2=O (stereo not given in full),active: 1.78 µM,–
Cc1cc(O)ccc1Nc1nc2ccccc2nc1Nc1ccc(O)cc1C,inactive,–
Cc1ccc(CNC(=O)Cc2csc(Nc3nc(=S)[nH]c4ccccc34)n2)cc1,"inconclusive: 6.31 µM [inhibitor, single point]",–
CN1CCC(=C2c3ccccc3C=Cc3ccccc32)CC1,"inactive and inconclusive: 39.8 µM [inhibitor, single point]",–
COc1ccc([C@H]2CC(=O)C=C(c3cccc(C(C)C)c3)C2)cc1,"inconclusive: 28.2 µM [inhibitor, single point]",–
O=C(NCCCN1CCOCC1)c1cc(-c2ccc(Br)cc2)nc2ccccc12,"inconclusive: 39.8 µM [inhibitor, single point]",–
COc1cccc2cc(-c3nc(-c4cccs4)no3)c(=O)oc12,inactive,–
COc1ccc(-c2cc(C(F)(F)F)nc(NCc3ccco3)n2)cc1OC,active: 22.4 µM,–
O=c1ccc(/C=C/c2ccccc2)nn1Cc1ccc(F)cc1,inactive,–
Cc1cc(C)nc(-n2nc(C)cc2NC(=O)CNC(C)c2ccccc2)n1 (stereo not given),"inconclusive: 0.141 µM [inhibitor, full curve, poor fit]",–

Compound,Potency,"activity change, negative = inhibition"
Cc1ccc(S(=O)(=O)NC(=NC(C)C)c2ccccc2)cc1,inactive,–
COc1ccc2c(=O)c(OC)c(-c3ccccc3)oc2c1,"inconclusive: 39.8 µM [inhibitor, partial curve]",–
COc1ccccc1N1CCN(C(=O)C2c3ccccc3Oc3ccccc32)CC1,inactive,–
Cc1ccc(C2NC(c3ccc(C)cc3)C(C)C(=O)C2C)cc1 (stereo not given),inactive,–
COn1c(SCc2cccc(Cl)c2)nc2ccccc2c1=O,inactive,–
COc1ccc(-c2cc(=O)c3ccccc3o2)cc1,"inconclusive: 12.6 µM [inhibitor, partial curve, poor fit] and inconclusive: 8.91 µM [inhibitor, partial curve, poor fit]",–
CN1CCN(c2ncc3nc(-c4cccs4)c(=O)n(C[C@H]4CCCO4)c3n2)CC1,"inconclusive: 28.2 µM [inhibitor, partial curve]",–
CC(=O)Nc1ccc(NCN2C(=O)C3C4CCC(C4)C3C2=O)cc1 (stereo not given),"inconclusive: 6.31 µM [inhibitor, single point]",–
Cn1c(=S)[nH]c2scc(-c3cccs3)c2c1=O,inactive,–
CCNc1ncc2nc(-c3ccc(OC)cc3)c(=O)n(C[C@H]3CCCO3)c2n1,"inconclusive: 3.16 µM [inhibitor, partial curve]",–
CCCCN(CCNP(=O)(OCC)OCC)CP(=O)(OCC)OCC,"inconclusive: 31.6 µM [inhibitor, single point]",–
CN1CCC(N(C)S(=O)(=O)c2ccc(NC(=O)COc3ccc(Br)cc3Cl)cc2)CC1,inactive,–
CCn1c(CCC(=O)Nc2nc3c(s2)CCCC3)nc2cc(S(=O)(=O)N(C)C)ccc21,"inconclusive: 14.1 µM [inhibitor, partial curve, poor fit]",–
O=C1CC(c2ccccc2)=NN1c1ccc([N+](=O)[O-])cc1,"inconclusive: 20 µM [inhibitor, single point]",–
COc1ccc2c(c1OC)C(Cc1ccccc1)N1CCc3cc4c(cc3C1=C2)OCO4 (stereo not given),"inconclusive: 31.6 µM [inhibitor, partial curve]",–
O=c1[nH]c(-c2ccc(-c3cccc(Cl)c3)o2)nc2ccccc12,"inconclusive: 25.1 µM [inhibitor, partial curve]",–
COc1ccc(Cl)cc1NC(=S)Nc1ccccc1C,inactive,–
CCn1c(=O)cc(N2CCCCC2)[nH]c1=O,"inconclusive: 39.8 µM [inhibitor, single point]",–
COc1ccc(-c2csc(NC(=O)CCN3C(=O)C4CC=CCC4C3=O)n2)cc1OC (stereo not given),inactive,–
Cc1cc(C=C2C(=O)c3ccccc3C2=O)c(C)n1-c1ccccc1,inactive,–
C[C@H](Cc1nc2c(cnn2-c2ccccc2Cl)c(=O)[nH]1)C(F)(F)F,inactive,–
Cc1ccc(OCC(=O)Nc2nnc(S(=O)(=O)N3CCC(C)CC3)s2)cc1,"inconclusive: 20 µM [inhibitor, partial curve]",–
